Results are given in words; binding and its absence hold for the method and conditions named. Some entries that bind do so weakly or less than the wild type.
Target: IL6 (UniProt P05231)
Assay: MRD identification, Example 48

Sequences of proteins named here, by UniProt entry; tags and fusion partners are left off. Residues count along the entry.
UniProt P05231, residues 30-212: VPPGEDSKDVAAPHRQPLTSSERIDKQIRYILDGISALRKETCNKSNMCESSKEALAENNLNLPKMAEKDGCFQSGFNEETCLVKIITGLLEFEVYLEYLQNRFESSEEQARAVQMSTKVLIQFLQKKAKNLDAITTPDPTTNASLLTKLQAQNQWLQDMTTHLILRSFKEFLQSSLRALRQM
UniProt P21860, residues 20-643: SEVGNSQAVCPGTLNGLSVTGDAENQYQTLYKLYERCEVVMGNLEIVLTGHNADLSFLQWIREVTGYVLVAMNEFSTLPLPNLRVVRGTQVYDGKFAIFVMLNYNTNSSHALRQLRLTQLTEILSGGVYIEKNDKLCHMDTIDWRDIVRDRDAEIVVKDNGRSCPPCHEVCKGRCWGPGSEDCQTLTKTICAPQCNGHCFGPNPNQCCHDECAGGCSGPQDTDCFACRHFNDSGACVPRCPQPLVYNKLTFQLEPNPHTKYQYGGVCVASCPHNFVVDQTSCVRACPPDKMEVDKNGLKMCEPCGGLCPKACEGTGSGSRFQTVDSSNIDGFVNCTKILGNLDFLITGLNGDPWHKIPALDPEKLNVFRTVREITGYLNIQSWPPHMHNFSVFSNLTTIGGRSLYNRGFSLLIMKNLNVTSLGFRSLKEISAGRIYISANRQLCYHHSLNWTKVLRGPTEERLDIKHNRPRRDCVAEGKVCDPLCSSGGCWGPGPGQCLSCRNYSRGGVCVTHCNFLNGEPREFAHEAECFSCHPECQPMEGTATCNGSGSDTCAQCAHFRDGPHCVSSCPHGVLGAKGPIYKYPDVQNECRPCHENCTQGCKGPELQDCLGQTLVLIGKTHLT

Binder	binding
QRMEKFMHGS [ILB59]	binds
MLDWVGRRPF [ILB60]	binds
YFWHSLKTMM [ILB65]	binds
DEIPLWEFQF [ILB69]	binds
FQESWSTWVEGQAG [ILB71]	binds
VWTAFIQMNS [ILB73]	binds
ECTHPVFVRPCWGQAG [ILB75]	binds
MWMYGWWWAG [ILB76]	binds
FCIYYHNHMIWGQACQAGRCGSYCWWQDYAYKVGQAG [ILB77]	binds
ICVASICGLVC [ILB82]	binds
RWHYWHQHWWGQAG [ILB84]	binds
VCKWKQEYCKGQAG [ILB87]	binds

Target: ErbB3 (UniProt P21860)
Assay: MRD screen, Example 48

Binder	binding
HREPYCPFLNPAWKEQCLVRS [EGC1009]	binds
ASEPYCPFLNPTWRDACLART [EGC1010]	binds
LREPYCPFLNPTWKEQCIARS [EGC1011]	binds
SSEPYCPFLNPTWYNECIYRI [EGC1012]	binds
LREPYCPFENPIWKEKCIAIT [EGC1013]	binds
PSEPYCPFLNPTWKAECIART [EGC1014]	binds
ATEPYCPFLNPIWKAQCIERM [EGC1015]	binds
LGEPYCPFLNPTWKLQCLART [EGC1016]	binds
ATEPYCPFLNPVWKDQCILRT [EGC1017]	binds
PIEPYCPFINPMWKAECIART [EGC1018]	binds
GREPYCPFLNPVWYNECMVRF [EGC1019]	binds
VIEPYCPFLNPIWKEQCIARS [EGC1020]	binds
TIEPYCPFLNPTWYKECLLRS [EGC1021]	binds
LGEPYCPFLNPTWKDQCTARS [EGC1022]	binds
WSEPYCPFLNPTWKAECIART [EGC1025]	binds
ASEPYCPFWNPIWKAQCIARI [EGC1026]	binds
ISEPYCPFVNPTWKAQCIART [EGC1027]	binds
VIEPYCPFVNPTWKEQCILRS [EGC1028]	binds
MSCDEAWYNEQTWLWCVT [EGC1029]	binds

Binder	binding
WQCEWQWVQEWGAWDEFCVM [EGC1030]	binds
GYCATDYWDYNGVWGTYCTQ [EGC1031]	binds
RYCYLFEKYAPFYDQCLL [EGC1032]	binds
RYCYLFQKYAPFYDQCLL [EGC1033]	binds
GCCYWWGLVYDKWIKCET [EGC1034]	binds
YQVKCPFQNPVWWSHCMYLL [EGC1035]	binds
GYCFLFYKFPQYHMQCII [EGC1036]	binds
KECLFTVPGVQHPVMWYCLT [EGC1037]	binds
LLCRGQTANNLQPDECLT [EGC1039]	binds
TCCRDYWMYRFLYTQCGM [EGC1040]	binds
SFHRCFEWVRHNCVWGA [EGC1041]	binds
ETLACAKLMPWYNECLARF [EGC1042]	binds
RYCDHFVNHHDYYKLCLT [EGC1043]	binds
WQCEWQWVQEWGAWDKFCVM [EGC1044]	binds
LERLCIEIWSYHCRSFL [EGC1045]	binds
LATWCQRWLASACFGLF [EGC1046]	binds
GWCFEYYPEVSRFVYSDCNS [EGC1047]	binds
YQVKCPFQNPVWWTHCMYLL [EGC1049]	binds
WHCQWFWVPEWGAWDEFCVM [EGC1050]	binds

Binder	binding
STCLLQYYQFDVFSKKFCPL [EGC1051]	binds
WHCEWHWVQEWGAWDEFCVM [EGC1052]	binds
PKVRCPFQNPIWWSHCMEIL [EGC1053]	binds
SVCHKMWPIIDDLYYCLR [EGC1056]	binds
SLCQHFQQQPVWYQACIR [EGC1057]	binds
YQVRCPFQNPVWWSHCMYLL [EGC1058]	binds
GYCFLFYKFPQYHMQCIS [EGC1059]	binds
LLCRGQSANNLQRDECLR [EGC1060]	binds
WHCQWFWVHEWGAWNEFCVM [EGC1063]	binds
WQCEWEWVQEWGAWDEFCVM [EGC1066]	binds
DQVKCPFQNPVWWSHCMYLL [EGC1070]	binds
WHCEWQWVQEWGAWDEFCVM [EGC1072]	binds
PKVRCPFQNPIWWSHCMKIL [EGC1073]	binds
GRCRGYEVDPWWHAPCFCDL [EGC1074]	binds
ILCQHFQQQPVWYQACIR [EGC1075]	binds
WNEPYCPFLNPTWKAQCIARI [EGC1082]	binds
LGEPYCPFLNPFWYDQCIARN [EGC1083]	binds
LGEPYCPFLNPYWYDQCMSRT [EGC1084]	binds
EGC1085 (peptide) peptide: ASSETYCPFLNPYWYDQCMSRTSGGGSGGGSQAAAGGSYMHEPHMQVLEIMN	binds

Reference: patent US20160046678A1 (ZYNGENIA, published 2016)
